{"source": "PubChem BioAssay AID1259308 (NCATS, 2017)", "test": "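Candidate targets for better recombinant protein yield in mammalian cells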 (primary screen)", "cells": "human HEK293 embryonic kidney cells stably expressing firefly luciferase (HEK-CMV-Luc2-Hygro)", "reagent": "single siRNA against human genes, 0.8 pmol siRNA per well", "timing": "72 h", "detection": "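Reporter luminescence and viable-cell signal on separate replicate plates, given as percent of non-targeting control and median/MAD z-scores, plus per-cell luciferase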", "scale": "total luciferase, z-score and total luciferase, % of control: higher = more reporter protein produced", "rule for the call": "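An siRNA counts as active if its total luciferase robust z-score exceeds 3; genes with two or more such siRNAs out of three were retested with fresh siRNAs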", "calls": "active = raised luciferase; inactive = no rise", "note": "The whole screen tested about 59,000 reagents; shown is an unselected part. Of all reagents, about 1,510 (2.6%) were called active. 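Calls use total luciferase alone and ignore viability, so some active siRNAs may act by altering cell number.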 The numbers tell different reagents against one gene apart. Further read-outs or replicates are left out here. Reagent sequences are not shown."}
{"gene": "SRP72", "reagent no.": 1, "total luciferase, z-score": 0.653, "total luciferase, % of control": 94.9, "activity call": "inactive"}
{"gene": "SRP72", "reagent no.": 2, "total luciferase, z-score": -0.528, "total luciferase, % of control": 71.4, "activity call": "inactive"}
{"gene": "SRP72", "reagent no.": 3, "total luciferase, z-score": -0.54, "total luciferase, % of control": 71.1, "activity call": "inactive"}
{"gene": "ENO1", "reagent no.": 1, "total luciferase, z-score": -1.27, "total luciferase, % of control": 56.6, "activity call": "inactive"}
{"gene": "ENO1", "reagent no.": 2, "total luciferase, z-score": 2.48, "total luciferase, % of control": 131, "activity call": "inactive"}
{"gene": "ENO1", "reagent no.": 3, "total luciferase, z-score": -0.0344, "total luciferase, % of control": 81.2, "activity call": "inactive"}
{"gene": "CDC37P1", "reagent no.": 1, "total luciferase, z-score": 0.275, "total luciferase, % of control": 87.4, "activity call": "inactive"}
{"gene": "CDC37P1", "reagent no.": 2, "total luciferase, z-score": -1.57, "total luciferase, % of control": 50.7, "activity call": "inactive"}
{"gene": "CDC37P1", "reagent no.": 3, "total luciferase, z-score": 3.01, "total luciferase, % of control": 142, "activity call": "active"}
{"gene": "PSD2", "reagent no.": 1, "total luciferase, z-score": -2.34, "total luciferase, % of control": 35.4, "activity call": "inactive"}
{"gene": "PSD2", "reagent no.": 2, "total luciferase, z-score": -2.62, "total luciferase, % of control": 29.7, "activity call": "inactive"}
{"gene": "PSD2", "reagent no.": 3, "total luciferase, z-score": 1.53, "total luciferase, % of control": 112, "activity call": "inactive"}
{"gene": "ZNF23", "reagent no.": 1, "total luciferase, z-score": -0.873, "total luciferase, % of control": 64.5, "activity call": "inactive"}
{"gene": "ZNF23", "reagent no.": 2, "total luciferase, z-score": -2.24, "total luciferase, % of control": 37.4, "activity call": "inactive"}
{"gene": "ZNF23", "reagent no.": 3, "total luciferase, z-score": -0.573, "total luciferase, % of control": 70.5, "activity call": "inactive"}
{"gene": "RNF167", "reagent no.": 1, "total luciferase, z-score": 2.11, "total luciferase, % of control": 124, "activity call": "inactive"}
{"gene": "RNF167", "reagent no.": 2, "total luciferase, z-score": 1.57, "total luciferase, % of control": 113, "activity call": "inactive"}
{"gene": "RNF167", "reagent no.": 3, "total luciferase, z-score": 0.249, "total luciferase, % of control": 86.8, "activity call": "inactive"}
{"gene": "LRRC8B", "reagent no.": 1, "total luciferase, z-score": -0.0414, "total luciferase, % of control": 81.1, "activity call": "inactive"}
{"gene": "LRRC8B", "reagent no.": 2, "total luciferase, z-score": -1.16, "total luciferase, % of control": 58.9, "activity call": "inactive"}
{"gene": "LRRC8B", "reagent no.": 3, "total luciferase, z-score": 1.06, "total luciferase, % of control": 103, "activity call": "inactive"}
{"gene": "TAS2R45", "reagent no.": 1, "total luciferase, z-score": 1.01, "total luciferase, % of control": 102, "activity call": "inactive"}
{"gene": "TAS2R45", "reagent no.": 2, "total luciferase, z-score": -0.39, "total luciferase, % of control": 74.1, "activity call": "inactive"}
{"gene": "TAS2R45", "reagent no.": 3, "total luciferase, z-score": 0.827, "total luciferase, % of control": 98.3, "activity call": "inactive"}
{"gene": "COL5A3", "reagent no.": 1, "total luciferase, z-score": -2.13, "total luciferase, % of control": 39.6, "activity call": "inactive"}
{"gene": "COL5A3", "reagent no.": 2, "total luciferase, z-score": 0.288, "total luciferase, % of control": 87.6, "activity call": "inactive"}
{"gene": "COL5A3", "reagent no.": 3, "total luciferase, z-score": 1.26, "total luciferase, % of control": 107, "activity call": "inactive"}
{"gene": "WFDC6", "reagent no.": 1, "total luciferase, z-score": 0.293, "total luciferase, % of control": 87.7, "activity call": "inactive"}
{"gene": "WFDC6", "reagent no.": 2, "total luciferase, z-score": 1.75, "total luciferase, % of control": 117, "activity call": "inactive"}
{"gene": "WFDC6", "reagent no.": 3, "total luciferase, z-score": -0.185, "total luciferase, % of control": 78.2, "activity call": "inactive"}
{"gene": "SULT1A2", "reagent no.": 1, "total luciferase, z-score": 1.27, "total luciferase, % of control": 107, "activity call": "inactive"}
{"gene": "SULT1A2", "reagent no.": 2, "total luciferase, z-score": 1.37, "total luciferase, % of control": 109, "activity call": "inactive"}
{"gene": "SULT1A2", "reagent no.": 3, "total luciferase, z-score": 1.86, "total luciferase, % of control": 119, "activity call": "inactive"}
